Some entries share one result that the patent states for a list of compounds.
How the values were obtained:
KRAS G12D = target: T1, KRAS G12D (Homo sapiens, UniProt P01116, G12D); experiment: Cellular Phospho-ERK AlphaLISA assay, HPAC cells (KRAS G12D); assay type: cell-based; details: cells expressing KRAS G12D; 2 h incubation; read-out: relative IC50, reduction of phosphorylated ERK-1/2
T1 construct: endogenous in cells; host or cells: HPAC (human pancreatic cancer)

KRAS WT = target: T2, KRAS WT (Homo sapiens, UniProt P01116); experiment: Cellular Phospho-ERK AlphaLISA assay, cells expressing KRAS WT (MKN45, WT KRAS amplification); assay type: cell-based; details: 2 h incubation, read-out: relative IC50, reduction of phosphorylated ERK-1/2
T2 construct: or amplification of the KRAS gene; endogenous in cells; host or cells: MKN45 (human gastric cancer, WT KRAS amplification)

KRAS G12V = target: T3, KRAS G12V (Homo sapiens, UniProt P01116, G12V); experiment: Cellular Phospho-ERK AlphaLISA assay, SW620 cells (KRAS G12V); assay type: cell-based; details: for selective inhibition preference for KRas G12V mutant over HRAS and NRAS: SW620 vs MEF-NRAS and MEF-HRAS Phospho-ERK AlphaLISA assays; for IC50: cells expressing KRAS G12V, 2 h incubation, read-out: relative IC50, reduction of phosphorylated ERK-1/2
T3 construct: endogenous in cells; host or cells: SW620 (human colorectal cancer)

KRAS G12C = target: T4, KRAS G12C (Homo sapiens, UniProt P01116, G12C); experiment: Cellular Phospho-ERK AlphaLISA assay, NCI-1373 cells (KRAS G12C); assay type: cell-based; details: cells expressing KRAS G12C; 2 h incubation; read-out: relative IC50, reduction of phosphorylated ERK-1/2
T4 construct: endogenous in cells; host or cells: NCI-1373 (human lung cancer)

HRAS = HRAS (Homo sapiens, UniProt P01112); experiment: Cellular Phospho-ERK AlphaLISA assay, MEF-HRAS (RAS-less MEFs expressing HRAS only); assay type: cell-based, mouse; details: MEF-HRAS cell line; 2 h incubation; read-out: relative IC50, phospho-ERK
NRAS = NRAS (Homo sapiens, UniProt P01111); experiment: Cellular Phospho-ERK AlphaLISA assay, MEF-NRAS (RAS-less MEFs expressing NRAS only); assay type: cell-based, mouse; details: MEF-NRAS cell line; 2 h incubation; read-out: relative IC50, phospho-ERK

Compound: N#Cc1c(N)sc2c(F)ccc(-c3c4c(c5c(NCc6nnc(C(F)F)[nH]6)nc(OC[C@@]67CCCN6C[C@H](F)C7)nc5c3Cl)COC4)c12 (single isomer, unassigned; atropisomer 1) [Example 15A]
- IC50 (KRAS G12D): < 500 nM
- IC50 (KRAS WT): < 500 nM
- selective inhibition preference for KRas G12V mutant over HRAS and NRAS (KRAS G12V): greater than 10 fold
- IC50 (KRAS G12V): < 500 nM
- IC50 (KRAS G12C): < 500 nM

Compound: CCc1nnc(CNc2nc(OC[C@@]34CCCN3C[C@H](F)C4)nc3c(Cl)c(-c4ccc(F)c5sc(N)c(C#N)c45)c4c(c23)COC4)o1 (single isomer, unassigned; atropisomer 1) [Example 23]
- IC50 (KRAS G12D): < 500 nM
- IC50 (KRAS WT): < 500 nM
- selective inhibition preference for KRas G12V mutant over HRAS and NRAS (KRAS G12V): greater than 10 fold
- IC50 (KRAS G12V): < 500 nM
- IC50 (KRAS G12C): < 500 nM

Compound: C[C@H](Oc1nc(NCc2cccnn2)c2c3c(c(-c4ccc(F)c5sc(N)c(C#N)c45)c(Cl)c2n1)COC3)[C@@H]1CCCN1C (single isomer, unassigned; atropisomer 1) [Example 38C]
- IC50 (KRAS G12D): < 500 nM
- IC50 (KRAS WT): < 500 nM
- selective inhibition preference for KRas G12V mutant over HRAS and NRAS (KRAS G12V): greater than 10 fold
- IC50 (KRAS G12V): < 500 nM
- IC50 (KRAS G12C): < 500 nM

Compound: N#Cc1c(N)sc2c(F)ccc(-c3c4c(c5c(NCc6ccnnc6)nc(OC[C@@]67CCCN6C[C@H](F)C7)nc5c3Cl)COC4)c12 (single isomer, unassigned; atropisomer 2) [Example 2A]
- IC50 (HRAS): > 2000 nM
- IC50 (NRAS): > 2000 nM

Compound: CN(C)C1(C)CN(c2nc(NCc3cccnn3)c3c4c(c(-c5c(F)ccc6sc(N)c(C#N)c56)c(Cl)c3n2)COC4)C1 (single isomer, unassigned; atropisomer 2) [Example 11C, 2-Amino-4-(5-chloro-3-(3-(dimethylamino)-3-methylazetidin-1-yl)-1-((pyridazin-3-ylmethyl)amino)-7,9-dihydrofuro[3,4-f]quinazolin-6-yl)-5-fluorobenzo[b]thiophene-3-carbonitrile, Atropisomer 2]
- IC50 (HRAS): > 2000 nM
- IC50 (NRAS): > 2000 nM

Compound: CCc1nnc(CNc2nc(OC[C@H]3COCCO3)nc3c(Cl)c(-c4ccc(F)c5sc(N)c(C#N)c45)c4c(c23)COC4)o1 (single isomer, unassigned; atropisomer 2) [Example 14]
- IC50 (HRAS): > 2000 nM
- IC50 (NRAS): > 2000 nM

Compound: CCc1nnc(CNc2nc(OC[C@@]34CCCN3C[C@H](F)C4)nc3c(Cl)c(-c4ccc(F)c5sc(N)c(C#N)c45)c4c(c23)COC4)o1 (single isomer, unassigned; atropisomer 2) [Example 24]
- IC50 (HRAS): > 2000 nM
- IC50 (NRAS): > 2000 nM

Compound: CN1CC[C@@H](Nc2nc(OC[C@@]34CCCN3C[C@H](F)C4)nc3c(Cl)c(-c4ccc(F)c5sc(N)c(C#N)c45)c4c(c23)COC4)C1=O (single isomer, unassigned; atropisomer 2) [Example 25A]
- IC50 (HRAS): > 2000 nM
- IC50 (NRAS): > 2000 nM

Compound: N#Cc1c(N)sc2c(F)ccc(-c3c4c(c5c(N[C@@H]6CCNC6=O)nc(OC[C@@]67CCCN6C[C@H](F)C7)nc5c3Cl)COC4)c12 (single isomer, unassigned; atropisomer 2) [Example 27A]
- IC50 (HRAS): > 2000 nM
- IC50 (NRAS): > 2000 nM

Compound: CN1CCC[C@@H](Nc2nc(N3CC(N(C)C)C3)nc3c(Cl)c(-c4ccc(F)c5sc(N)c(C#N)c45)c4c(c23)COC4)C1=O (single isomer, unassigned; atropisomer 2) [Example 36A]
- IC50 (HRAS): > 2000 nM
- IC50 (NRAS): > 2000 nM

Compound: Cc1nc(CNc2nc(O[C@@H](C)[C@@H]3CCCN3C)nc3c(Cl)c(-c4ccc(F)c5sc(N)c(C#N)c45)c4c(c23)COC4)no1 (single isomer, unassigned; atropisomer 2) [Example 37C]
- IC50 (HRAS): > 2000 nM
- IC50 (NRAS): > 2000 nM

Compound: CN(C)CC1(COc2nc(N[C@@H]3CCCN(C)C3=O)c3c4c(c(-c5ccc(F)c6sc(N)c(C#N)c56)c(Cl)c3n2)COC4)CC1 (single isomer, unassigned; atropisomer 2) [Example 38A]
- IC50 (HRAS): > 2000 nM
- IC50 (NRAS): > 2000 nM

Compound: C[C@H](Oc1nc(NCc2cccnn2)c2c3c(c(-c4ccc(F)c5sc(N)c(C#N)c45)c(Cl)c2n1)COC3)[C@@H]1CCCN1C (single isomer, unassigned; atropisomer 2) [Example 39C]
- IC50 (HRAS): > 2000 nM
- IC50 (NRAS): > 2000 nM

Compound: Cc1nc(CNc2nc(N3CC[C@H](N(C)C)C3)nc3c(Cl)c(-c4ccc(F)c5sc(N)c(C#N)c45)c4c(c23)COC4)no1 (single isomer, unassigned; atropisomer 2) [Example 40A]
- IC50 (HRAS): > 2000 nM
- IC50 (NRAS): > 2000 nM

Compound: Cc1nc(CNc2nc(OC[C@@]34CCCN3C[C@H](F)C4)nc3c(F)c(-c4ncc(F)c5sc(N)c(C#N)c45)c4c(c23)COC4)no1 [Example 7B, 2-Amino-7-fluoro-4-(5-fluoro-3-(((2R,7aS)-2-fluorotetrahydro-1H-pyrrolizin-7a(5H)-yl)methoxy)-1-(((5-methyl-1,2,4-oxadiazol-3-yl)methyl)amino)-7,9-dihydrofuro[3,4-f]quinazolin-6-yl)thieno[3,2-c]pyridine-3-carbonitrile]
- IC50 (KRAS G12D): < 500 nM
- IC50 (KRAS WT): < 500 nM
- selective inhibition preference for KRas G12V mutant over HRAS and NRAS (KRAS G12V): greater than 10 fold
- IC50 (KRAS G12V): < 500 nM
- IC50 (KRAS G12C): < 500 nM

Compound: Cc1cc(CNc2nc(OC[C@@]34CCCN3C[C@H](F)C4)nc3c(Cl)c(-c4ccc(F)c5sc(N)c(C#N)c45)c4c(c23)COC4)[nH]n1 [Example 14A, 2-Amino-4-(5-chloro-3-(((2R, 7aS)-2-fluorotetrahydro-1H-pyrrolizin-7a(5H)-yl)methoxy)-1-(((3-methyl-1H-pyrazol-5-yl)methyl)amino)-7,9-dihydrofuro[3,4-f]quinazolin-6-yl)-7-fluorobenzo[b]thiophene-3-carbonitrile]
- IC50 (KRAS G12D): < 500 nM
- IC50 (KRAS WT): < 500 nM
- selective inhibition preference for KRas G12V mutant over HRAS and NRAS (KRAS G12V): greater than 10 fold
- IC50 (KRAS G12V): < 500 nM
- IC50 (KRAS G12C): < 500 nM

Compound: CCc1nnc(CNc2nc(OC[C@@]34CCCN3C[C@H](F)C4)nc3c(Cl)c(-c4ccc(F)c5sc(N)c(C#N)c45)c4c(c23)COC4)o1 [Example 22, 2-Amino-4-(5-chloro-1-(((5-ethyl-1,3,4-oxadiazol-2-yl)methyl)amino)-3-(((2R,7aS)-2-fluorotetrahydro-1H-pyrrolizin-7a(5H)-yl)methoxy)-7,9-dihydrofuro[3,4-f]quinazolin-6-yl)-7-fluorobenzo[b]thiophene-3-carbonitrile]
- IC50 (KRAS G12D): < 500 nM
- IC50 (KRAS WT): < 500 nM
- selective inhibition preference for KRas G12V mutant over HRAS and NRAS (KRAS G12V): greater than 10 fold
- IC50 (KRAS G12V): < 500 nM
- IC50 (KRAS G12C): < 500 nM

Compound: CCc1nnc(CNc2nc(OC[C@@H]3CCCN3C)nc3c(Cl)c(-c4ccc(F)c5sc(N)c(C#N)c45)c4c(c23)COC4)o1 [Example 25, 2-Amino-4-(5-chloro-1-(((5-ethyl-1,3,4-oxadiazol-2-yl)methyl)amino)-3-(((S)-1-methylpyrrolidin-2-yl)methoxy)-7,9-dihydrofuro[3,4-f]quinazolin-6-yl)-7-fluorobenzo[b]thiophene-3-carbonitrile]
- IC50 (KRAS G12D): < 500 nM
- IC50 (KRAS WT): < 500 nM
- selective inhibition preference for KRas G12V mutant over HRAS and NRAS (KRAS G12V): greater than 10 fold
- IC50 (KRAS G12V): < 500 nM
- IC50 (KRAS G12C): < 500 nM

Compound: N#Cc1c(N)sc2c(F)ccc(-c3c4c(c5c(NCc6noc7c6CCCC7)nc(OC[C@@]67CCCN6C[C@H](F)C7)nc5c3Cl)COC4)c12 [Example 28, 2-Amino-4-(5-chloro-3-(((2R,7aS)-2-fluorotetrahydro-1H-pyrrolizin-7a(5H)-yl)methoxy)-1-(((4,5,6,7-tetrahydrobenzo[d]isoxazol-3-yl)methyl)amino)-7,9-dihydrofuro[3,4-f]quinazolin-6-yl)-7-fluorobenzo[b]thiophene-3-carbonitrile]
- IC50 (KRAS G12D): < 500 nM
- IC50 (KRAS WT): < 500 nM
- selective inhibition preference for KRas G12V mutant over HRAS and NRAS (KRAS G12V): greater than 10 fold
- IC50 (KRAS G12V): < 500 nM
- IC50 (KRAS G12C): < 500 nM

Compound: CN(C)[C@H]1CCN(c2nc(Nc3cnoc3)c3c4c(c(-c5c(F)ccc6sc(N)c(C#N)c56)c(F)c3n2)COC4)C1 [Example 31B, 2-Amino-4-(3-((S)-3-(dimethylamino)pyrrolidin-1-yl)-5-fluoro-1-(isoxazol-4-ylamino)-7,9-dihydrofuro[3,4-f]quinazolin-6-yl)-5-fluorobenzo[b]thiophene-3-carbonitrile]
- IC50 (KRAS G12D): < 500 nM
- IC50 (KRAS WT): < 500 nM
- selective inhibition preference for KRas G12V mutant over HRAS and NRAS (KRAS G12V): greater than 10 fold
- IC50 (KRAS G12V): < 500 nM
- IC50 (KRAS G12C): < 500 nM

Compound: CN1CC[C@@H](Nc2nc(OCC3(CN4C[C@H]5C[C@@H]4CO5)CC3)nc3c(F)c(-c4ncc(F)c5sc(N)c(C#N)c45)c4c(c23)COC4)C1=O [Example 52A, 4-(3-((1-(((1R,4R)-2-Oxa-5-azabicyclo[2.2.1]heptan-5-yl)methyl)cyclopropyl)methoxy)-5-fluoro-1-(((R)-1-methyl-2-oxopyrrolidin-3-yl)amino)-7,9-dihydrofuro[3,4-f]quinazolin-6-yl)-2-amino-7-fluorothieno[3,2-c]pyridine-3-carbonitrile]
- IC50 (KRAS G12D): < 500 nM
- IC50 (KRAS WT): < 500 nM
- selective inhibition preference for KRas G12V mutant over HRAS and NRAS (KRAS G12V): greater than 10 fold
- IC50 (KRAS G12V): < 500 nM
- IC50 (KRAS G12C): < 500 nM
